Results: the supplement of paper PMC5949888
± gives the standard deviation of the averaged measurements. Most values lie at the floor of the assay. Slopes are relative: functional sequences can read slightly below zero.

tested on: Saccharomyces cerevisiae PS128 hsf1 delta, HSF1(1-493) fusion; assay: growth estimate (transactivation domain function in HSF1 fusion, heat-shock survival) (a.u. (slope of normalised read count over time)); higher = stronger growth at 37°C, i.e. more transactivation activity; conditions: library: random library

Substance | growth estimate
LPIDRDTLID | < -0.25
LPIIEGSRGALCSVPKTNA | < -0.25
LPINLCGSLSYQKPDEVISS | < -0.25
LPIVSLPCRLPTLGYKSISA | < -0.25
LPKGDRLDRRAGFGNSFHRP | < -0.25
LPKRISPFVAHIRRDTHETG | < -0.25
LPKSLNLSTGEPFQLSNKIG | < -0.25
LPKVGSEGKRMPQFYKKTGP | < -0.25
LPLGQRAK | < -0.25
LPLKPGCRHTPGDFSGFTET | < -0.25
LPLSPANPARDHLTHLVTRT | < -0.25
LPMDQREAHVV | < -0.25
LPMQFIRC | < -0.25
LPNLQRIKSSGLRTSDSLQR | < -0.25
LPPGNANPKGLILRGSLNGT | < -0.25
LPPPTG | < -0.25
LPPVMIADVGSCGKGYRET | < -0.25
LPRCMVPGTGERGWVQSKLH | < -0.25
LPRLAHL | < -0.25
LPRNYVRDKCFSLSGAGNEE | < -0.25
LPRSSRCPSGLYFA | < -0.25
LPRTI | < -0.25
LPRVGQVQRNQPSPGCLADS | < -0.25
LPSGITWQGGHREAG | < -0.25
LPSHRTNLD | < -0.25

Substance | growth estimate
LPSIRHRQGIGVVLFSELPA | < -0.25
LPSLGP | < -0.25
LPSLSNPDS | < -0.25
LPSQRQTWVSCIVQGIRC | < -0.25
LPSSVLATLGAQLATP | < -0.25
LPSVTHGEPIRPVHGTPYPA | < -0.25
LPT | < -0.25
LPTGSCRALRQPCRLDGEPR | < -0.25
LPTPCMLLMECARG | < -0.25
LPV | < -0.25
LPVLCPWVQYRNCRRLLPLR | < -0.25
LPVLVPSKREGGSRCHCESR | < -0.25
LPVN | < -0.25
LPVRALTSIT | < -0.25
LPVRITTLCLFITWPFEGAP | < -0.25
LPVSGCVVMREAFWTIGSAL | < -0.25
LPVTRTSGENE | < -0.25
LPWAFVCSLSSTVSISTFVI | < -0.25
LQASGRQIRSR | < -0.25
LQAVDDSPVKCGDRGPPPAT | < -0.25
LQDLPEEWGQVQAPSLSKPN | < -0.25
LQDRFFYLCLGVRLVSGRE | < -0.25
LQDRSGSFTVDPL | < -0.25
LQFECDM | < -0.25
LQGHTSGIPTSLTLCPAQVG | -0.0864

Substance | growth estimate
LQGRFAQINQGRPRSWG | < -0.25
LQHPKIVGRSPFPPLRPPCL | < -0.25
LQIRLSVISASEIVLRV | < -0.25
LQIYANPLICLFHPNSVRRC | < -0.25
LQKIRRS | < -0.25
LQLDSQA | < -0.25
LQLFRLAWLLGTIYTRLSMY | < -0.25
LQLGKGSSRPNGLSRLLRGK | < -0.25
LQMSYPSYAESTCLWTVAGH | < -0.25
LQNLSIRFRSRGTVFARLRP | < -0.25
LQPVSGAITGREMTVMRVGC | < -0.25
LQR | < -0.25
LQRAAHYSERCLLASPRL | < -0.25
LQSCVWGLVGSGAGCSHTPS | < -0.25
LQSL | < -0.25
LQSTPQNDAAVSCGHARQFE | < -0.25
LQSVRIDGFTVY | < -0.25
LQTNAWSLELELPETLTLLG | < -0.25
LQTPRHNCEMVAHRDFGSWR | < -0.25
LQVGLDALSRGSYPARNVCC | < -0.25
LRAERHCHDEVY | < -0.25
LRASAGEGMAC | < -0.25
LRAYFTHRPHGLSRFGLSPT | < -0.25
LRCAK | < -0.25
LRCKLG | < -0.25

Reprinted from the entries so far for reference:
Substance | growth estimate
LQSCVWGLVGSGAGCSHTPS | < -0.25
LQSL | < -0.25
LQSTPQNDAAVSCGHARQFE | < -0.25

(list continues)

Substance | growth estimate
LRCPGSADWLSLPAVTTTTA | < -0.25
LRCRRVRASHSSDRRVMLRS | < -0.25
LRCSCLKKRLDGCPWPPGFG | < -0.25
LRDGT | < -0.25
LRDQGCDRDSLFSRARASR | < -0.25
LRDQRPKRLPVLINYIAKSA | < -0.25
LRDRGASAKGGS | < -0.25
LREDSGANLAGLRLFCLLAT | < -0.25
LREHQGPEGASGYAPVGSHT | -0.243
LREIGWLFLVALGKCRKCHK | < -0.25
LRF | < -0.25
LRFELGWQPFTILNLLVKGL | < -0.25
LRFEVPGPLESLVGIGVTTA | < -0.25
LRFLA | < -0.25
LRFRYTSKSNQLLR | < -0.25
LRFS | < -0.25
LRFTDAGHFQATGSEFFGRL | -0.224
LRGGFQYRQVSCLR | < -0.25
LRGNWNCRECQRSDRPIRLS | < -0.25
LRGPASTIKQSGTWANEMSA | < -0.25
LRGSRRRFDIPVFTPGKWFV | < -0.25
LRGVSPQCTSEGVQAESLFR | -0.245
LRGWALTATVLSAAGQGREG | < -0.25
LRGWLGRRRPMCGR | < -0.25
LRHG | < -0.25

Substance | growth estimate
LRHQELFGVRLTMPGGLGYS | < -0.25
LRIIFGSVLKSRGAA | < -0.25
LRK | < -0.25
LRKGMWVGQTKVSTAGDRPI | < -0.25
LRKGVGVCN | < -0.25
LRKRAQDGMING | < -0.25
LRL | -0.248 ± 0.0041
LRLAGSFRCNITYMSPPCA | < -0.25
LRLASTITIFTG | < -0.25
LRLDGGRGKSLHVFREMNLL | < -0.25
LRLDKISDGKRGDMALSPRA | < -0.25
LRLLDGHRPWSD | < -0.25
LRLLKVLDRCLCERGLRGAD | < -0.25
LRLLPWQHSILQAMLPGVQR | < -0.25
LRLRLPGLPGHLHATLSR | < -0.25
LRLTQFRDNSSMRGSVITVQ | < -0.25
LRLVVVL | < -0.25
LRMREFAIIRLASILLGYVS | < -0.25
LRN | < -0.25
LRNEWCPVGSE | < -0.25
LRNLGSC | < -0.25
LRNLKSGSQARRREQA | < -0.25
LRNLTVVPPCYLRRNTENRI | < -0.25
LRPDRV | -0.246
LRPGSAHSNVAEVTGGLICH | < -0.25

Substance | growth estimate
LRPPTVRVWGCQASSVNWTP | < -0.25
LRPVSGPGHSNSRPKQLKPC | < -0.25
LRQRLLYTKEAN | < -0.25
LRQSVAY | < -0.25
LRRFCLLMPG | < -0.25
LRRGDTGCLKGITVKPFGSR | < -0.25
LRRHIRMVD | < -0.25
LRRLGWSGPPS | < -0.25
LRRLW | < -0.25
LRRPDAVLGLFPKSSQTYAR | < -0.25
LRRPVRDTTKVGVTAFSTLS | < -0.25
LRRRR | < -0.25
LRRVCSGLKQSVLARRRACG | < -0.25
LRSDMLWEALRNPGGRGRRV | < -0.25
LRSRAICARR | < -0.25
LRSVGCRVVYAS | < -0.25
LRSVGTCWRAGTR | < -0.25
LRTECGKCSLRISPIVLLRR | < -0.25
LRTFESPPTRATLPRGLLAS | < -0.25
LRTRQKLVVARAGGMRPSHG | < -0.25
LRTRVHGYNRAYPLKY | < -0.25
LRTYQNEYRRKDNNGDRCDA | < -0.25
LRVEDRDNARCVHSCGFHAG | < -0.25
LRVGFRDAPVGSKLVRGVVV | < -0.25
LRVPV | < -0.25

Substance | growth estimate
LRVS | < -0.25
LRVSGSE | < -0.25
LRVWEFAPTEVTQVYV | < -0.25
LRWCVWVGCIWNETSIDHAS | -0.243
LRWERETGFAL | < -0.25
LRYDGGVVNSV | < -0.25
LRYIRSGYIMQLTSPVVWHR | < -0.25
LRYMRRRCGPTEKQIDWGVV | < -0.25
LSAGGSPSDLVSMISLSWGS | -0.108
LSARLIAGT | < -0.25
LSCDLFEFNRATSQMS | < -0.25
LSDIKFL | < -0.25
LSDRSTHHGHDASST | < -0.25
LSDSQVEGFPHESFSRCPVS | < -0.25
LSDYMPRGPQYCE | < -0.25
LSEISNF | -0.23
LSFDPIHIGRTAHWLPTRDP | < -0.25
LSFGDRHRFAGWFPACTNST | < -0.25
LSFHGPRTTVI | < -0.25
LSFL | < -0.25
LSGACREAACATKNSGDMTA | < -0.25
LSGDS | < -0.25
LSGIGNS | < -0.25
LSGLSG | < -0.25
LSGSHAGQESTTSATISALL | -0.231

Substance | growth estimate
LSGVYL | < -0.25
LSHMNTGPGEPGQLGTLFVS | < -0.25
LSHSFGYRTLQGEWEACEYT | < -0.25
LSICTRGCLDSWSAPAKKES | -0.243
LSKARTLRRTRDLRCVAGLR | < -0.25
LSKDQVLR | < -0.25
LSKSR | < -0.253
LSLCVFLREARTRSLKHDEL | < -0.25
LSLFA | < -0.25
LSLGLRRPSAFDSPLLGASE | < -0.25
LSLHAKDLPMIWSVRVVWFI | < -0.25
LSLHDFPYV | < -0.25
LSLLVPAQFLVIKPGRLCRC | < -0.25
LSLNPAGGL | < -0.25
LSLNTYGAINGA | < -0.25
LSLRNSM | < -0.25
LSMTETCKNGRTL | < -0.25
LSNEESDLGGT | < -0.25
LSPEQYAGQVGTVESSIWEV | -0.237
LSPGHWILPLQIGRCNGIFD | < -0.25
LSPLV | < -0.25
LSPM | < -0.25
LSPRVSLWSIR | < -0.25

A second format for part of the listing above.

| Substance | growth estimate |
| --- | --- |
| LSAGGSPSDLVSMISLSWGS | -0.108 |
| LSARLIAGT | < -0.25 |

A few values from the entries so far:
growth estimate, LRLTQFRDNSSMRGSVITVQ reads < -0.25
growth estimate, LQHPKIVGRSPFPPLRPPCL reads < -0.25
growth estimate, LPNLQRIKSSGLRTSDSLQR reads < -0.25
